Measurements published in patent US20260193375A1.
Numbering of substitutions follows the chain as printed. No constants are given. Whether binding was seen depends on the method and setting. One block for each binder: values may come before it.

Chains of the proteins cited; added tags and fusions are not shown. Residues count along the entry.
UniProt P02769, residues 25-607: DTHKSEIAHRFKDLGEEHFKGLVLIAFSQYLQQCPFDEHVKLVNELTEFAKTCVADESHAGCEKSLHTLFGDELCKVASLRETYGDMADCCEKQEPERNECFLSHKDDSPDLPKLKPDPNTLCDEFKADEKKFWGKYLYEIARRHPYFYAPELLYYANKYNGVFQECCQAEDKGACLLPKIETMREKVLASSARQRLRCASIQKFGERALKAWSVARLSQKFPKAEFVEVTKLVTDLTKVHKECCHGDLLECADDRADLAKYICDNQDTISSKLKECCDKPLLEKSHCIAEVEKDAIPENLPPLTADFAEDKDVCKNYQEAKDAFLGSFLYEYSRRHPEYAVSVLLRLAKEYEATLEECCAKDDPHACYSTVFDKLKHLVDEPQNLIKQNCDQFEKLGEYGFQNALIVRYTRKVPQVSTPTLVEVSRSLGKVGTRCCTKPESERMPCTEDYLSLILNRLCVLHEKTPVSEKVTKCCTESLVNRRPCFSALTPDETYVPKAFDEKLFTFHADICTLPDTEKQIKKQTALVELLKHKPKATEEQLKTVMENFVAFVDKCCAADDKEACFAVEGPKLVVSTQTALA

Biological target: BSA (bovine) (UniProt P02769)
Experiment: ELISA, antigen coated on the plate, antibody as human IgG1, anti-human F(ab)2 HRPO

binding: no binding (tested: 10 µg/ml)
B1: anti-LY6K antibody 3520 (antibody, V domains shown)
VH: QVQLVQSGSELKKPGASVKVSCKASGYTFTLYAMNWVRQAPGQGLEWMGWINTNTGNPTYAQGFTGRFVFSLDTSVSTAYLQISSLKAEDTAVYYCARTNWNSWGQGTMVTVSS
VL: DIQMTQSPSSLSASVGDRVTITCQASQDISNYLHWFQQKPGKAPKLLIYDASNLETGVPSRFSGSGSGTDFTFTIFSLQPEDIATYYCQHYDNLPLTFGGGTKVEIK

binding: no binding (tested: 10 µg/ml)
B2: anti-LY6K antibody 3035 (antibody, V domains shown)
VH: EVQLVESGGGLVQPGGSLKLSCAASGFTFSDSTLHWVRQASGKGLEWVGRIRSKANSYATAYAASVKGRFTISRDDSKNTAYLQMNSLKTEDTAVYYCHNWSYGYWGQGTLVTVSS
VL: QTVVTQEPSLTVSPGGTVTLTCASSTGAVTSYYYPNWFQQKPGQAPRTVIYSTTNKHSWTPARFSGSLLGGKAALTLSGVLPEDEADYYCLLFYGGAYVFGTGTKVTVL

binding: no binding (tested: 10 µg/ml)
B3: anti-LY6K antibody 3741 (antibody, V domains shown)
VH: EVQLVESGGGLVKPGGSLRLSCAASGFTFSSYSMNWVRQAPGKGLEWVSSISSSSNYIYYVDSVKGRFTTSRDNAKNSLYLQMNSLRAEDTAVYYCARQEATGNNYYYYYMDVWGKGTTVTVSS
VL: DIQMTQSPSSLSASVGDRVTITCRASQSISNYLNWYQQNLGKAPKVLIYAASSLQSGVPSRFSGSGSGTDFTLTISSLQPEDFATYYCQQTYSTPITFGQGTRLEIK

binding: no binding (tested: 10 µg/ml)
B4: anti-LY6K antibody 3503 (antibody, V domains shown)
VH: EVQLVESGGGLVKPGGSLRLSCAASGFIFSSYSMNWVRQAPGKGLEWVSSISSSSSYIYYADSEKGRFTISRDNAKNSLYLQMNSLRAEDTAVYYCARQSTVVTSDYYYYYMDVWGKGTTVTVSS
VL: B3 VL with N39K, L40P, K45N, V46L, T91S, T94P

binding: no binding (tested: 10 µg/ml)
B5: anti-LY6K antibody 3501 (antibody, V domains shown)
VH: EVQLVESGGGLVQPGRSLRLSCAASGFTFDDYAMHWVRQAPGKGLEWVSGISWNSGTIDYADSVKGRFTISRDNAKNSLYLQVNSLRAEDTALYYCAKDSPQKDYYYMDVWGKGTTVTVSS
VL: B3 VL with A25T, N31S, N39K, L40P, K45N, V46L, T91S, S93I

binding: no binding (tested: 10 µg/ml)
B6: anti-LY6K antibody 3082 (antibody, V domains shown)
VH: EVQLVESGGGLVKPGGSLRLSCAASGFTFSSSSMNWVRQAPGKGLEWVSSISRSSYYIYYADSVEGRFTISRDNAKNSLYLQMNSLRAEDTAVYYCAKIGSSSEGVEDYYYYYYMDVWGKGTTVTVSS
VL: DIQMTQSPSSLSASVGDRVTITCRASQNINSYLNWYQQKPGKAPKLLIYAASSLQSGVPSRFSGSGSGTDFTLTISSLQPEDFATYYCHQSYSTPLTFGGGTKVEIK

binding: no binding (tested: 10 µg/ml)
B7: anti-LY6K antibody 3785 (antibody, V domains shown)
VH: QVQLQQSGPGLVKPSQTLSLTCAISGDSVSSNSAAWNWIRQSPSRGLEWLGRTYFRSKWNNDYTLSVKNRITINPDTSKNHFSLQLNSVTPEDTAVYYCAGGGYCNRTYCPDVFDIWGQGTMVTVSS
VL: B6 VL with I21F, A25S, N28S, N30S, K45N, A50V, S53T, H89Q, T94I

binding: no binding (tested: 10 µg/ml)
B8: anti-LY6K antibody 3719 (antibody, V domains shown)
VH: EVQLVESGGGLVQPGRSLRLSCTASGFTFNDYAMHWVRQAPGKGLEWVSGISWNSNNIDYADSVKGRFTISRDNAKNSLYMQMNSLRAEDTALYYCAKDGPGTTNDAFDIWGQGTMVTVSS
VL: B6 VL with Q27H, N28S, N30S, S91G

binding: no binding (tested: 10 µg/ml)
B9: anti-LY6K antibody 3063 (antibody, V domains shown)
VH: EVQLVESGGGLVKPGRSLRLSCAASGFTFDDFAMHWVRQAPGKGLEWVSGLSWKGHTLGYADSVKGRFTFSRDSAKNSLYLQMNSLRAEDTALYYCAKDTRSGLDYWGQGTLVTVSS
VL: DIVMTQTPLSSPVTLGQPASISCRSSQSLEHSDGNTYLSWLQQRPGQPPRLLIYKISNRFSGVPDRFSGNGAGTDFTLKISRVEAEDVGIYYCMQATEFPFTFGGGTKVEIK

binding: no binding (tested: 10 µg/ml)
B10: anti-LY6K antibody 3074 (antibody, V domains shown)
VH: EVQLVESGGGLVHPGRSLRLSCAASGFTFDDYAMHWVRQAPGKGLEWVSGISWKTNKIDYADSVKGRFTTSRDNAKNSLYLQMNSLRTEDTAFYYCAKDRREMTFDIWGQGTMVTVSS
VL: B9 VL with D33N, N70S, E98Q, F101L
